This test deals with Strep-tagged RIPK3 wild-type (WT) (UniProt Q9Y572). Put plainly: co-IP; Strep-RIPK3 precipitated on MagStrep type3 XT beads from 1% NP-40 lysates, overnight 4 °C; RIPK3 KO HT-29 cells with Dox-induced Strep-RIPK3, TBZ 3 h, with or without HOIPIN-8 (30 µM).

Protein sequences, listed by entry. Tags and fused reporters are not part of them.
UniProt Q9Y572: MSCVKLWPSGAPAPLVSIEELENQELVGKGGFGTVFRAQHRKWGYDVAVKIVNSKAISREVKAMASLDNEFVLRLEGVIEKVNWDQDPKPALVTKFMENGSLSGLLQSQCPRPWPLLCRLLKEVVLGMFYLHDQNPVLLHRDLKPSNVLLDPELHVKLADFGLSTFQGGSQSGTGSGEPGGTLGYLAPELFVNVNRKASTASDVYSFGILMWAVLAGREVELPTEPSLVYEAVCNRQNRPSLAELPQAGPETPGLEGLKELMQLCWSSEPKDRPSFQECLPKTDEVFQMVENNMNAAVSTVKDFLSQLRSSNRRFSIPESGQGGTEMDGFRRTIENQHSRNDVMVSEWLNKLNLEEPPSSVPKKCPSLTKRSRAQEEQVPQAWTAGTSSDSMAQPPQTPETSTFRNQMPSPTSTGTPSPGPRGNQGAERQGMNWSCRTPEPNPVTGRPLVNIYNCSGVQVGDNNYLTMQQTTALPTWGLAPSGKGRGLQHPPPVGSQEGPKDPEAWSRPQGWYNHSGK
UniProt Q13546: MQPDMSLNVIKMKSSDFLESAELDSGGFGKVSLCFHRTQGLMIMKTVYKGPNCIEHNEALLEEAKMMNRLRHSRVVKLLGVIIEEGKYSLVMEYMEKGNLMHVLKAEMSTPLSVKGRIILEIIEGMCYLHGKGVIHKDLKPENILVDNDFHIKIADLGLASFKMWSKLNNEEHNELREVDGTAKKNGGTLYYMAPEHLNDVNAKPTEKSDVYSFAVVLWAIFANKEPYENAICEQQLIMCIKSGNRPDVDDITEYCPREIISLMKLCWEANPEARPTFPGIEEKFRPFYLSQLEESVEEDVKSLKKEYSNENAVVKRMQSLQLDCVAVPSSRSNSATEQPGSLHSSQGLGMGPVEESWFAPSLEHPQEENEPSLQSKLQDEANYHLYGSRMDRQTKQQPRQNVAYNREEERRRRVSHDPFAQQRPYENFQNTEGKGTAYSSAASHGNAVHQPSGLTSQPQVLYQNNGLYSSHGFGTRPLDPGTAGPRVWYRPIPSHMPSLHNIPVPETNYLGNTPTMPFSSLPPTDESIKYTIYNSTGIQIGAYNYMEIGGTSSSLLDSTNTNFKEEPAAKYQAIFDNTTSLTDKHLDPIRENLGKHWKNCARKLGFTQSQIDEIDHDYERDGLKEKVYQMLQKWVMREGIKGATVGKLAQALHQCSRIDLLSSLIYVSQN

Results are given in words; binding and its absence hold for the method and conditions named. Binding seen in cells or lysates may run through a third protein. Some entries that bind do so weakly or less than the wild type.

Drawing on article PMC10799905, this text covers binding for 1 substance.

In the case of “RIPK1 phosphorylated at S166 (from UniProt Q13546 1-671)”, the binding entry was “binds”.
